Laboratory results as given in patent US4098778A (Hoffmann-La Roche Inc., priority 1977, dated 1978).

Protein sequences, listed by entry. Tags and fused reporters are not part of them. Lines headed by an entry give the natural chain unless they say otherwise; changes in a name come on top.
UniProt P01203: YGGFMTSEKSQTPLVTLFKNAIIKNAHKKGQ

Experiment: general procedure: Boc solid-phase peptide synthesis; chloromethylated copolystyrene-divinylbenzene resin
Details: whole synthesis, scale 50 μmol

Substance: βc -endorphin-(6-31) (TSEKSQTPLVTLFKNAIIKNAHKKGQ; Beta-endorphin; UniProt P01203 6-31, looked up, fragment)
- isolated yield (overall, from 50 μmol starting resin): 33%
- isolated mass: 48 mg
